# Experimental data taken from the supplement of paper PMC8728848.
# This is one part of the list.
# B1: MFG-E8 (Mus musculus), P21956 (protein)
# chain: MQVSRVLAALCGMLLCASGLFAASGDFCDSSLCLNGGTCLTGQDNDIYCLCPEGFTGLVCNETERGPCSPNPCYNDAKCLVTLDTQRGDIFTEYICQCPVGYSGIHCETETNYYNLDGEYMFTTAVPNTAVPTPAPTPDLSNNLASRCSTQLGMEGGAIADSQISASSVYMGFMGLQRWGPELARLYRTGIVNAWTASNYDSKPWIQVNLLRKMRVSGVMTQGASRAGRAEYLKTFKVAYSLDGRKFEFIQDESGGDKEFLGNLDNNSLKVNMFNPTLEAQYIKLYPVSCHRGCTLRFELLGCELHGCSEPLGLKNNTIPDSQMSASSSYKTWNLRAFGWYPHLGRLDNQGKINAWTAQSNSAKEWLQVDLGTQRQVTGIITQGARDFGHIQYVASYKVAHSDDGVQWTVYEEQGSSKVFQGNLDNNSHKKNIFEKPFMARYVRVLPVSWHNRITLRLELLGC
# Experiments:
# Assay in all cases: glycan array binding signal (z-score within array); higher = stronger binding
# Settings in all cases: glycan notation: IUPAC condensed, linker removed
# [1] = biological target: Fuc(a1-2)[GalNAc(a1-3)]Gal(b1-4)GlcNAc(b1-6)GalNAc
# How it was run: (§1)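 Glycan array data were curated from 3228 arrays in the Consortium for Functional Glycomics database and kept only where the protein sequence was available. Glycan names were converted to IUPAC-condensed notation, and columns mapping to the same glycan were averaged. The binding signal is a within-array Z-score, averaged across arrays of the same protein sequence at different concentrations or buffers and across linkers. Negative Z-scores can be read as non-binding.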
# [2] = biological target: Fuc(a1-2)[GalNAc(a1-3)]Gal(b1-4)[Fuc(a1-3)]GlcNAc
# How it was run: as §1
# [3] = biological target: Fuc(a1-2)[GalNAc(a1-3)]Gal(b1-4)[Fuc(a1-3)]GlcNAc(b1-3)GalNAc
# How it was run: as §1
# [4] = biological target: Fuc(a1-2)[GalNAc(a1-4)]Gal(b1-4)GlcNAc
# How it was run: as §1
# [5] = biological target: Fuc(a1-2)[GalNAc(b1-3)]Gal
# How it was run: as §1
# [6] = biological target: Fuc(a1-3)GlcNAc
# How it was run: as §1
# [7] = biological target: Fuc(a1-3)[Gal(b1-4)]Glc6S
# How it was run: as §1
# [8] = biological target: Fuc(a1-3)[Gal(b1-4)]GlcNAc
# How it was run: as §1
# [9] = biological target: Fuc(a1-3)[Gal(b1-4)]GlcNAc(b1-2)Man
# How it was run: as §1
# [10] = biological target: Fuc(a1-3)[Gal(b1-4)]GlcNAc(b1-2)Man(a1-3)[Fuc(a1-3)[Gal(b1-4)]GlcNAc(b1-2)Man(a1-6)]Man(b1-4)GlcNAc(b1-4)GlcNAc
# How it was run: as §1
# [11] = biological target: Fuc(a1-3)[Gal(b1-4)]GlcNAc(b1-2)Man(a1-3)[Fuc(a1-3)[Gal(b1-4)]GlcNAc(b1-2)Man(a1-6)]Man(b1-4)GlcNAc(b1-4)[Fuc(a1-6)]GlcNAc
# How it was run: as §1
# [12] = biological target: Fuc(a1-3)[Gal(b1-4)]GlcNAc(b1-3)Gal(b1-3)[Fuc(a1-4)]GlcNAc
# How it was run: as §1
# [13] = biological target: Fuc(a1-3)[Gal(b1-4)]GlcNAc(b1-3)Gal(b1-4)[Fuc(a1-3)]GlcNAc
# How it was run: as §1
# [14] = biological target: Fuc(a1-3)[Gal(b1-4)]GlcNAc(b1-3)Gal(b1-4)[Fuc(a1-3)]GlcNAc(b1-3)Gal(b1-4)[Fuc(a1-3)]GlcNAc
# How it was run: as §1
# [15] = biological target: Fuc(a1-3)[Gal(b1-4)]GlcNAc(b1-3)GalNAc
# How it was run: as §1
# [16] = biological target: Fuc(a1-3)[Gal(b1-4)]GlcNAc(b1-4)Gal(b1-4)[Fuc(a1-3)]GlcNAc
# How it was run: as §1
# [17] = biological target: Fuc(a1-3)[Gal(b1-4)]GlcNAc(b1-4)Gal(b1-4)[Fuc(a1-3)]GlcNAc(b1-4)Gal(b1-4)[Fuc(a1-3)]GlcNAc
# How it was run: as §1
# [18] = biological target: Fuc(a1-3)[Gal(b1-4)]GlcNAc(b1-6)GalNAc
# How it was run: as §1
# [19] = biological target: Fuc(a1-3)[Gal(b1-4)]GlcNAc(b1-6)[Gal(b1-3)GlcNAc(b1-3)]Gal(b1-4)Glc
# How it was run: as §1
# [20] = biological target: Fuc(a1-3)[Gal(b1-4)]GlcNAc(b1-6)[Neu5Ac(a2-3)Gal(b1-3)]GalNAc
# How it was run: as §1
# [21] = biological target: Fuc(a1-3)[Gal(b1-4)]GlcNAc6S
# How it was run: as §1
# [22] = biological target: Fuc(a1-3)[Gal3S(b1-4)]Glc
# How it was run: as §1
# [23] = biological target: Fuc(a1-3)[Gal3S(b1-4)]GlcNAc
# How it was run: as §1
# [24] = biological target: Fuc(a1-3)[Gal3S(b1-4)]GlcNAc6S
# How it was run: as §1
# [25] = biological target: Fuc(a1-3)[GalNAc(b1-4)]GlcNAc
# How it was run: as §1
# [26] = biological target: Fuc(a1-3)[GalNAc(b1-4)]GlcNAc6S
# How it was run: as §1
# [27] = biological target: Fuc(a1-4)GlcNAc
# How it was run: as §1
# [28] = biological target: Fuc(b1-3)GlcNAc
# How it was run: as §1
# [29] = biological target: Gal(a1-2)Gal
# How it was run: as §1
# [30] = biological target: Gal(a1-3)Gal
# How it was run: as §1
# [31] = biological target: Gal(a1-3)Gal(b1-3)GlcNAc
# How it was run: as §1
# [32] = biological target: Gal(a1-3)Gal(b1-3)GlcNAc(b1-2)Man
# How it was run: as §1
# [33] = biological target: Gal(a1-3)Gal(b1-3)GlcNAc(b1-2)Man(a1-3)[Gal(a1-3)Gal(b1-3)GlcNAc(b1-2)Man(a1-6)]Man(b1-4)GlcNAc(b1-4)GlcNAc
# How it was run: as §1
# [34] = biological target: Gal(a1-3)Gal(b1-3)GlcNAc(b1-3)GalNAc
# How it was run: as §1
# [35] = biological target: Gal(a1-3)Gal(b1-3)GlcNAc(b1-6)GalNAc
# How it was run: as §1
# [36] = biological target: Gal(a1-3)Gal(b1-3)[Fuc(a1-4)]GlcNAc(b1-2)Man(a1-3)[Gal(a1-3)Gal(b1-3)[Fuc(a1-4)]GlcNAc(b1-2)Man(a1-6)]Man(b1-4)GlcNAc(b1-4)GlcNAc
# How it was run: as §1
# [37] = biological target: Gal(a1-3)Gal(b1-4)Glc
# How it was run: as §1
binder,measurement,setting,value
B1,glycan array binding signal (z-score),[1],-0.016
same,glycan array binding signal (z-score),[2],0.187
same,glycan array binding signal (z-score),[3],1.65
same,glycan array binding signal (z-score),[4],-0.581
same,glycan array binding signal (z-score),[5],-0.529
same,glycan array binding signal (z-score),[6],-0.278
same,glycan array binding signal (z-score),[7],-0.159
same,glycan array binding signal (z-score),[8],-0.249
same,glycan array binding signal (z-score),[9],0.369
same,glycan array binding signal (z-score),[10],-0.753
same,glycan array binding signal (z-score),[11],0.786
same,glycan array binding signal (z-score),[12],-0.604
same,glycan array binding signal (z-score),[13],-0.573
same,glycan array binding signal (z-score),[14],0.878
same,glycan array binding signal (z-score),[15],0.628
same,glycan array binding signal (z-score),[16],-0.206
same,glycan array binding signal (z-score),[17],0.172
same,glycan array binding signal (z-score),[18],0.516
same,glycan array binding signal (z-score),[19],0.093
same,glycan array binding signal (z-score),[20],-0.592
same,glycan array binding signal (z-score),[21],0.177
same,glycan array binding signal (z-score),[22],-0.681
same,glycan array binding signal (z-score),[23],0.045
same,glycan array binding signal (z-score),[24],-0.198
same,glycan array binding signal (z-score),[25],-0.553
same,glycan array binding signal (z-score),[26],-0.263
same,glycan array binding signal (z-score),[27],-0.73
same,glycan array binding signal (z-score),[28],-0.416
same,glycan array binding signal (z-score),[29],0.39
same,glycan array binding signal (z-score),[30],-0.538
same,glycan array binding signal (z-score),[31],-0.404
same,glycan array binding signal (z-score),[32],-0.334
same,glycan array binding signal (z-score),[33],0.914
same,glycan array binding signal (z-score),[34],0.272
same,glycan array binding signal (z-score),[35],-0.054
same,glycan array binding signal (z-score),[36],0.336
same,glycan array binding signal (z-score),[37],-0.244

# 2 successive entries out of the list so far, for reference:
binder,measurement,setting,value
B1,glycan array binding signal (z-score),[25],-0.553
same,glycan array binding signal (z-score),[26],-0.263
